Source: PubChem BioAssay AID504467 (National Center for Advancing Translational Sciences (NCATS), 2011)
The campaign covered roughly 330,000 compounds. About 7,700 (2.3%) were called active. The shares of active, inactive and inconclusive entries below differ from those in the screen. The call rests on the fitted dose curve; in most records, active means well fitted inhibition curve with a large enough effect; inconclusive means small, poorly fitted or top-dose-only effect, or effect the other way; inactive means flat fitted curve, though single readings scatter. Potencies of inconclusive entries are doubtful fits and often do not repeat.
Potency means the concentration at half of the fitted maximal effect.

Assay: qHTS screen for small molecules that inhibit ELG1-dependent DNA repair in human embryonic kidney (HEK293T) cells expressing luciferase-tagged ELG1; further: nearly all actives have a fitted effect of over 55% in size
Conditions: HEK293T ELG1-luciferase reporter, luminescence, 16 h, DNA damage induced by 5-fluorouridine; series mostly up to 46.1 µM
Procedure, shortened: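 DMSO vehicle served as the neutral condition. Each well held 2,000 cells given 5-fluorouridine plus compound; after 16 hr at 37 °C/5% CO2, ONE-Glo was added and luciferase measured 30 min later.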
With `O=C(NCCc1cccs1)c1ccc(Cl)c(Cl)c1` the Potency was inconclusive: 10.3 µM [activator, partial curve].
For `COC(=O)c1sc(NC(=S)NC(=O)c2ccccc2C)nc1C`, the Potency was inconclusive: 20.6 µM [activator, partial curve].
For `COc1cc([C@@H]2c3cc4c(cc3[C@@H](O)[C@@H](CO)[C@@H]2CO)OCO4)cc(OC)c1O[Si](C)(C)C(C)(C)C`, the Potency was inconclusive: 29.1 µM [inhibitor, single point].
With `CC(C)CC(COCc1ccc(Cl)cc1)N1CCN(C(=O)c2ccc(C(F)(F)F)cc2)CCC1=O` (centres undefined) the Potency was inconclusive: 32.6 µM [inhibitor, single point].
For `COc1ccc(C(CCNCc2ccc(OC)c(OC)c2)c2ccc(F)cc2)cc1` (centres undefined), the Potency was inconclusive: 18.3 µM [inhibitor, single point].
In the case of `COCCOC(=O)C1=C(C)NC(C)=C(C(=O)OC(C)C)C1c1cccc([N+](=O)[O-])c1` (centres undefined), the Potency is reported as active: 11.6 µM.
For `O=C(NC(=S)N1CCOCC1)c1cn(-c2ccccc2)nc1-c1ccccc1`, the Potency was active: 18.3 µM.
For `C=CCN(CC(=O)Nc1cccnc1)S(=O)(=O)c1ccc(Cl)cc1`, the Potency was “inactive”.
For `CS(=O)(=O)c1ccccc1C(=O)Nc1ccc(-c2nc3ccccc3[nH]2)cc1`, the Potency was inconclusive: 20.6 µM [activator, partial curve].
With `CC1CN(C(=O)Cn2cc(SCC(=O)N3CCOCC3)c3ccccc32)CC(C)O1` (centres undefined) the Potency was inconclusive: 23.1 µM [activator, single point].
For `CCCCn1c(CN2CCN(c3cccc(Cl)c3)CC2)nc2c1c(=O)[nH]c(=O)n2C`, the Potency was inconclusive: 14.6 µM [inhibitor, partial curve].
With `COc1ccc(C(=O)NCCS(=O)(=O)N2CCOCC2)cc1` the Potency was “inactive”.
With `Cc1nc(Nc2cccc(O)c2)c2oc3ccccc3c2n1` the Potency was “inactive”.
For `O=C(NNC(=S)Nc1ccccc1)Nc1ccccc1`, the Potency was inconclusive: 2.91 µM [activator, partial curve].
In the case of `CO/N=C/c1ccc(N2CCOCC2)c([N+](=O)[O-])c1`, the Potency is reported as inconclusive: 23.1 µM [inhibitor, partial curve].
For `Cc1cc(C)c2c(N=NN3CCOCC3)[nH]nc2n1`, the Potency was inconclusive: 18.4 µM [activator, single point].
In the case of `COc1ccccc1N1CCN(C2CCCN(S(=O)(=O)c3cccc(Cl)c3)C2)CC1` (centres undefined), the Potency is reported as inconclusive: 29.1 µM [inhibitor, partial curve, poor fit].
In the case of `COc1ccc(CCN(C(=O)C(F)(F)F)C(C(=O)NC2CCCC2)c2cccs2)cc1OC` (centres undefined), the Potency is reported as “inactive”.
With `O=C(O)c1cc(Br)ccc1NN=C1CCCCC1` the Potency was inconclusive: 20.6 µM [activator, single point].
For `COc1ccccc1N(CC(=O)NCCSCc1cccc(C)c1)S(=O)(=O)c1ccccc1`, the Potency was inconclusive: 29.1 µM [inhibitor, single point].
With `COC(=O)c1cnc(SCC(=O)c2ccccc2)n1C` the Potency was inconclusive: 8.2 µM [activator, partial curve].
For `Cc1cccc(N(C(=O)c2csnn2)C(C(=O)NC2CCCCC2)c2ccncc2)c1` (centres undefined), the Potency was “inactive”.
With `CCOc1cc([N+](=O)[O-])cc(/C=N/NC(=O)c2c(-c3ccccc3)noc2C)c1O` the Potency was inconclusive: 25.9 µM [inhibitor, single point].
For `COc1ccc(NS(=O)(=O)c2ccc(SC)cc2)c(OC)c1`, the Potency was inconclusive: 11.6 µM [inhibitor, partial curve].
For `COc1ccc(C(=O)c2nc3c(n2O)CCCCC3)cc1`, the Potency was inconclusive: 13 µM [activator, partial curve].
For `COc1ccc(/C=N/n2cnn(Cc3ccccc3Cl)c2=S)cc1`, the Potency was inconclusive: 29.1 µM [inhibitor, single point].
With `CN(C)C(=O)c1cn(-c2ccccc2)nc1-c1cc2ccccc2oc1=O` the Potency was “inactive”.
For `S=c1nc(-c2ccccc2)n(CCCn2ccnc2)c2c1CCCC2`, the Potency was “inactive”.
For `COc1ccccc1CCNC(=O)c1ccoc1C`, the Potency was inconclusive: 13 µM [activator, partial curve, poor fit].
In the case of `CCN(CC)S(=O)(=O)c1ccc(N2CCOCC2)c(NC(=O)c2cc3ccccc3oc2=O)c1`, the Potency is reported as active: 5.17 µM.
With `COC(=O)Cn1c2[n+](c3ccccc31)CC(O)CS2` (centres undefined) the Potency was inconclusive: 0.231 µM [inhibitor, single point].
In the case of `O=C(C1CC(=O)N(c2ccc3c(c2)OCCO3)C1)N1CCN(Cc2ccccc2F)CC1` (centres undefined), the Potency is reported as “inactive”.
For `COc1ccc(/C=C/C(=O)Nc2cc(F)ccc2C)cc1S(=O)(=O)N1CCOCC1`, the Potency was inconclusive: 29.1 µM [inhibitor, single point].
For `COC(=O)c1ccccc1NC(=S)N(Cc1ccc2c(c1)OCO2)Cc1cc2ccc(OC)cc2[nH]c1=O`, the Potency was active: 7.31 µM.
With `CCCC(C)C(=O)Nc1ccc(S(=O)(=O)Nc2nccs2)cc1` (centres undefined) the Potency was “inactive”.
With `COc1ccc(C)cc1S(=O)(=O)NC(C)C(=O)NC1CC1` (centres undefined) the Potency was “inactive”.
For `COc1ccc(S(=O)(=O)N2CCC(CN3C(=O)c4cccc5cccc(c45)C3=O)CC2)cc1`, the Potency was active: 10.3 µM.
With `CC1(C)S[C@@H]2[C@H](NC(=O)[C@H](N)c3ccccc3)C(=O)N2[C@H]1C(=O)OC1OC(=O)c2ccccc21` (some centres undefined) the Potency was “inactive”.
With `Cc1cc(C(=O)N/N=C/c2ccc[nH]2)no1` the Potency was inconclusive: 23.1 µM [activator, single point].
For `CCn1cc(CNC(=O)c2cc(-c3cc(OC)ccc3OC)nc3ccccc23)c(C)n1`, the Potency was inconclusive: 23.1 µM [inhibitor, partial curve].
With `O=C(/C=C/c1ccccc1Cl)Nc1ccncc1` the Potency was inconclusive: 18.4 µM [activator, partial curve].
With `COc1ccc(S(=O)(=O)N2CCN(C(=O)NCc3ccccc3)CC2)cc1` the Potency was inconclusive: 18.4 µM [inhibitor, partial curve, poor fit].
In the case of `COc1ccccc1NC(=S)N(Cc1ccco1)Cc1cc2cc(C)c(C)cc2[nH]c1=O`, the Potency is reported as inconclusive: 5.8 µM [inhibitor, partial curve, poor fit].
With `COc1cc(/C=N/N=C(/C(=O)c2ccccc2)c2ccccc2)cc(OC)c1O` the Potency was inconclusive: 7.31 µM [inhibitor, partial curve].
In the case of `O=c1c2ccccc2[nH]c(=S)n1CCCN1CCN(c2ccccc2)CC1`, the Potency is reported as “inactive”.
With `COc1cccc(CNc2nc3ccccc3n2C)c1O` the Potency was inconclusive: 11.2 µM [activator, partial curve].
In the case of `CC(=O)Nc1sc(N/N=C/c2ccc(N(C)C)cc2)nc1-c1ccc(C)cc1`, the Potency is reported as inconclusive: 13 µM [activator, partial curve, poor fit].
With `Cc1ccc(NC(=O)COc2ccccc2C=O)cc1Cl` the Potency was inconclusive: 9.2 µM [activator, partial curve].
In the case of `CC1=NN(c2ccccc2)C(=O)/C1=C/c1ccc[nH]1`, the Potency is reported as inconclusive: 20.6 µM [activator, partial curve].
In the case of `CCOC(=O)N1CCC(n2c(SCC(=O)NCc3ccccc3)nc3ccccc3c2=O)CC1`, the Potency is reported as inconclusive: 29.1 µM [inhibitor, single point].
In the case of `CN1C(=O)c2ccc(NC(=O)CSc3ccccc3)cc2C1=O`, the Potency is reported as inconclusive: 20.6 µM [activator, partial curve, poor fit].
For `CN1CCN(c2ccc(NC(=O)c3ccc(Cl)cc3)cn2)CC1`, the Potency was inconclusive: 25.9 µM [activator, partial curve, poor fit].
For `O=C(CSc1ccccn1)c1ccc2c(c1)OCO2`, the Potency was inconclusive: 10.3 µM [activator, partial curve].
In the case of `CN=c1scc(-c2cccs2)n1/N=C/c1ccccc1O`, the Potency is reported as active: 5.17 µM.
In the case of `COc1ccc2oc(C(=O)N(C)CCOc3ccccc3)c(C)c2c1`, the Potency is reported as inconclusive: 18.3 µM [activator, partial curve].
For `C=C(C)C1CC=C(C)/C(=N/NC(=O)COc2ccccc2Cl)C1` (centres undefined), the Potency was inconclusive: 29.1 µM [inhibitor, single point].
In the case of `CNc1ccc(Br)cc1C(O)c1ccccc1` (centres undefined), the Potency is reported as inconclusive: 29.1 µM [activator, partial curve, poor fit].
For `COc1nc2cc(C)ccc2cc1-c1noc(-c2cccnc2)n1`, the Potency was “inactive”.
With `CCOc1nc(NC2CCCC2)nc(N2CCC(C)CC2)n1` the Potency was “inactive”.
With `COc1ccc(N(CC(=O)Nc2cccc(N(C)S(C)(=O)=O)c2)S(=O)(=O)c2ccc(F)cc2)cc1` the Potency was active: 13 µM.
With `CC(NC(=O)C1CCN(c2nnc(-n3cccc3)s2)CC1)C12CC3CC(CC(C3)C1)C2` (centres undefined) the Potency was “inactive”.
For `CC(C)(C)c1ccccc1OCCOCCN1CCCCCC1`, the Potency was “inactive”.
With `CC1CCC(C(C)C)C2=C1C(C#N)(C#N)C(C#N)(C#N)C(c1ccccc1)N2` (centres undefined) the Potency was inconclusive: 13 µM [inhibitor, partial curve].
With `Cc1ccc(C2(CCNS(=O)(=O)c3ccc(C)cc3)CCOC(C(C)C)C2)cc1` (centres undefined) the Potency was inconclusive: 32.6 µM [inhibitor, partial curve, poor fit].
For `CSCC[C@H](NC(=O)N1CCn2c1nc1ccccc12)C(=O)NCc1ccco1`, the Potency was “inactive”.
With `Cc1ccc(NC(=O)CCCNC(=O)c2ccc(Cl)cc2)cc1S(=O)(=O)N1CCOCC1` the Potency was “inactive”.
With `COc1cccc(CNC(=O)c2n[nH]c3ccccc23)c1` the Potency was inconclusive: 18.3 µM [activator, partial curve].
For `O=C1CC2(CCN(C(=O)c3c(F)cccc3Cl)CC2)Oc2ccccc21`, the Potency was “inactive”.
With `CC(C)(C)OC(=O)C[C@H]1C/C=C\C[C@@H](CC(=O)N(CCO)Cc2ccccc2)C(=O)N[C@H](Cc2c[nH]c3ccccc23)COC1=O` the Potency was active: 20.6 µM.
